Assay results as given in patent US20150025002A1, “PEPTIDES AND PEPTIDE DERIVATIVES BASED ON XENIN” (UNIVERSITY OF ULSTER, priority 2012, published 2015).
Not every detail of the peptide structures is certain; ends, links or a residue may be inferred. Ends that are not written are not given here.

Key:
high fat fed mice = assay: Acute glucose homeostasis and insulin secretion in high fat fed mice; assay type: in vivo
Protocol: NIH Swiss male mice (6 weeks old) were housed in an air conditioned room 22±2° C. with a 12 h light: 12 h dark cycle. Animals were maintained on a high fat diet 16 weeks prior to commencement and throughout the study. Drinking water and high fat diet was freely available. All animal studies were performed in accordance with the UK Animals (Scientific Procedures) Act 1986 under project licences held by the inventor.
Freely fed animals were divided into weight-matched groups (n=8) and administered, by intraperitoneal injection, glucose alone (18 mmol/kg body weight) or glucose in combination with each peptide (25 nmol/kg body weight). Blood samples were collected immediately prior to (t=0) and 15, 30 and 60 min post-injection. Whole blood was used to measure glucose values using an Acensia CONTOUR Microfill Blood Glucose Meter and Acensia MICROFILL test strips (Bayer Healthcare, UK). Blood samples for measurement of insulin was collected into fluorine/heparin microcentrifuge tubes (Sarstedt, Numbercht, Germany) at times indicated above and immediately centrifuged using a Beckman microcentrifuge (Beckman Instruments, UK) for 5 min at 13,000 g. Plasma was then aliquoted and stored at −20° C. prior to insulin determination by RIA.

BRIN-BD11 cells = assay: In vitro insulin secretion in BRIN-BD11 cells (radioimmunoassay); assay type: cell-based, rat; settings: 5.6 mM glucose, FIG. 1a/1e
Protocol: BRIN-BD11 cells (ECACC accession number 100330033) were cultured in RPMI 1640 tissue culture medium containing 10% (v/v) foetal calf serum, 1% (v/v) antibiotics (100 U/ml of penicillin and 0.1 mg/ml of streptomycin). BRIN-BD11 cells were originally derived by means of electrofusion of a New England Deaconess Hospital (NEDH) rat pancreatic beta-cell line with an RINm5F cell line in order to produce an immortal, glucose sensitive, insulin secreting cell line (McClenaghan etal., Diabetes. 1996 August; 45(8):1132-40). All cells were maintained in sterile tissue culture flasks (Corning Glass Works, Corning, N.Y., USA) at 37° C. in an atmosphere of 5% CO2 and 95% air, using an LEEC incubator (Laboratory Technical Engineering, Nottingham, UK).
BRIN-BD11 cells were seeded into 24-well plates at a density of 1×10^5 cells and allowed to attach to the wells overnight in an incubator. Before acute studies of insulin were carried out, the cells underwent a 40 min preincubation period at 37° C. with 1.0 ml of Krebs Ringer bicarbonate buffer (115 mM NaCl, 4.7 mM KCl, 1.28 mM CaCl2.2H2O, 1.2 mM KH2PO4, 1.2 mM MgSO4.7H2O, 10 mM NaHCO3, 5 g/l bovine serum albumin (BSA), pH 7.4) supplemented with 1.1 mM glucose. […] The incubations were performed for 20 min at 37° C., after which the buffer solution was removed and 2×200 μl aliquots stored at −20° C. until measurement of insulin levels by radioimmunoassay (RIA).

MLTQFETQSAQVQGLSFHPQQPWIL [xenin-Gln]
plasma glucose AUC vs glucose alone (high fat fed mice; 25 nmol/kg i.p. with glucose 18 mmol/kg, 0-60 min): significantly reduced
plasma insulin response vs glucose alone (high fat fed mice; 25 nmol/kg i.p. with glucose 18 mmol/kg, FIG. 2b/2f): elevated in xenin-Gln treated mice to a greater extent than both native xenin and glucose alone treated mice
overall glycaemic excursion compared with native xenin and xenin-GluPal (high fat fed mice; 25 nmol/kg i.p., FIG. 2e): lowered the overall glycaemic excursion to a greater extent than either native xenin
plasma glucose level 30 min post injection vs glucose alone (high fat fed mice; 25 nmol/kg i.p., FIG. 2e): reduced plasma glucose levels 30 min post injection
insulin secretion, peptide alone (BRIN-BD11 cells; 20 min, 10^-12 to 10^-6 M): stimulated insulin secretion in a concentration-dependent manner
insulin production compared to glucose alone, concentrations with significant effect (BRIN-BD11 cells; peptide alone): significantly enhanced insulin production at concentrations of 10^−8 and 10^−8 M
insulin secretion compared with native xenin (BRIN-BD11 cells; peptide alone): stimulates insulin secretion to a greater extent than native xenin
